The record followed here is publication PMC6351035.

Protein sequences, listed by entry. Tags and fused reporters are not part of them. Residues count along the entry.
UniProt O95831, residues 103-613: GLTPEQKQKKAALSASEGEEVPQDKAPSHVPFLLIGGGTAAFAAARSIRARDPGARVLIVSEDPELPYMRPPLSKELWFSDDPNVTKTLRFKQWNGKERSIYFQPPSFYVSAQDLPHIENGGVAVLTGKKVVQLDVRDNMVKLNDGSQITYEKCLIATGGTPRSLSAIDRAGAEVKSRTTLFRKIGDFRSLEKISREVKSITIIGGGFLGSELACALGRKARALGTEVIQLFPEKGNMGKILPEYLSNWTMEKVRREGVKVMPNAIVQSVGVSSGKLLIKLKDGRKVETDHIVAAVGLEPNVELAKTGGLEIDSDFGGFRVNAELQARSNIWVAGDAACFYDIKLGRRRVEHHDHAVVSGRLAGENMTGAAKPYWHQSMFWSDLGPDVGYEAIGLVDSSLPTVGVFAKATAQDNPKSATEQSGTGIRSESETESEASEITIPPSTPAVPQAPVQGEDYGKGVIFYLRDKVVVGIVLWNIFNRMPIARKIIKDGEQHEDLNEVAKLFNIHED
UniProt P38647, residues 47-679: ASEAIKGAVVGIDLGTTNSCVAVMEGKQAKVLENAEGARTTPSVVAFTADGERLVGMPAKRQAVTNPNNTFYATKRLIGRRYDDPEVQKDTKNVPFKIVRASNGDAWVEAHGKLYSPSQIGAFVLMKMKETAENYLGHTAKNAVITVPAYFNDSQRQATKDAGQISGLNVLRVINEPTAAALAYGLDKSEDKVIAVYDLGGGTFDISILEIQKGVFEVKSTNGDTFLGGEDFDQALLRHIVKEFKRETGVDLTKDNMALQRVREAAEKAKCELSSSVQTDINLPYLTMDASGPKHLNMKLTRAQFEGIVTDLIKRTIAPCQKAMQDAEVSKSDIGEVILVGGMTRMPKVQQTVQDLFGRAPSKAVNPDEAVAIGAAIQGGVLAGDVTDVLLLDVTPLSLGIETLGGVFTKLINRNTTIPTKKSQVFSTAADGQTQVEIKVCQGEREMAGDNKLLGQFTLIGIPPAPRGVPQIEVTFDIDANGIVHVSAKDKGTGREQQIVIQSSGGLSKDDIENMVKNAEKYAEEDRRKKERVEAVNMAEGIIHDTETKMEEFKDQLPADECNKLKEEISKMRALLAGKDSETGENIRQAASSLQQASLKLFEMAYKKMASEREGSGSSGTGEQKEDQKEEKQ

Results are given in words; binding and its absence hold for the method and conditions named. Binding seen in cells or lysates may run through a third protein.

The target of this test is processed AIF (apoAIF, amino acids 103 to 613) with N-terminal hexahistidine tag (UniProt O95831). Put plainly: pull-down; His-tagged AIF fragments immobilized on magnetic beads, incubated with a fraction of solubilized OMM proteins containing mortalin; Western blot with anti-mortalin; only the target purified.

Turning to “mortalin, endogenous, in solubilized outer mitochondrial membrane proteins of mouse liver (from UniProt P38647 47-679)”, the binding entry is reported as “no binding”.
